In all, about 3,200 compounds were measured (“TSA(with NAD+) / Primary screening (TSA) / delta Tm (K)”: median about -0.04, highest 2% from about 0.37 on). The list shows a part of the results.
Biological target: NAD-dependent deacetylase Sirtuin 1 (human, UniProt Q96EB6)
Assay: primary screen, delta tm
Design: single well (n = 1, as 'the same TSA')
Settings: 10 µM
Protocol: A total of 3,192 compounds extracted from the proposed lists were first screened by thermal shift assay (TSA), which determined a melting temperature shift (ΔTm) of Sirtuin 1 upon the addition of a test compound at a concentration of 10 µM (n = 1) with primary hit criteria of ΔTm > 0.45 K or ΔTm < −1.5 K. Primary hits (48 compounds) were retested in the same assay at three concentrations (5, 10, 20 µM, n = 4) for hit confirmation and for dose-dependency check. Secondary hits (41 compounds) were checked their selectivity for Sirtuin 1 based on counterscreening on unrelated protein targets (bovine carbonic anhydrase (CA) and recombinant SH2 domain of hABL1 kinase (ABL1)) at three different concentrations (5, 10, 20 µM, n = 4), which yielded 38 hit compounds, hereafter referred to as TSA hits. The TSA screening above was conducted in the absence of NAD+. As noted, the structure of Sirtuin 1 is different in the presence of NAD+ and substrate. The chemical profile of TSA hits found from the different conditions could be different. […] As a result, 39 TSA hits were found.

Protein sequences, listed by entry. Tags and fused reporters are not part of them. Residues count along the entry.
UniProt Q96EB6, 2-747 limits assumed: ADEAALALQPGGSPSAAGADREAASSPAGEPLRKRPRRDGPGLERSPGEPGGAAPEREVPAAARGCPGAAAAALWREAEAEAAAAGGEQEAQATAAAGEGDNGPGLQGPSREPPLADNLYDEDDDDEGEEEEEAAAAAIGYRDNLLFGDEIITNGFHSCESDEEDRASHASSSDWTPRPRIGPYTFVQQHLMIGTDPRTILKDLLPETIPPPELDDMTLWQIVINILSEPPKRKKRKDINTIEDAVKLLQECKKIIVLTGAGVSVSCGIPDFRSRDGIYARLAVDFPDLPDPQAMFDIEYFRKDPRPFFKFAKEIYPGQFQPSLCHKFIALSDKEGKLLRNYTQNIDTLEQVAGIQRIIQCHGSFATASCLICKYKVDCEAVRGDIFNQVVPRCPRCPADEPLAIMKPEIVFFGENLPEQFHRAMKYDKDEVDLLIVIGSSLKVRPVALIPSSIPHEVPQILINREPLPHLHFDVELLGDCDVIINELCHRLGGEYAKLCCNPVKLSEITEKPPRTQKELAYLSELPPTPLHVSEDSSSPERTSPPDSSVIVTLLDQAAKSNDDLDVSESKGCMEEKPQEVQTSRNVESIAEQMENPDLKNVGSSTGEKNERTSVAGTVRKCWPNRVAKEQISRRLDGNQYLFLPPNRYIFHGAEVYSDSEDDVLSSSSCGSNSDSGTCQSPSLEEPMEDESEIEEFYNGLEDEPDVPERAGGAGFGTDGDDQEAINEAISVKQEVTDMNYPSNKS

Row | SMILES | TSA(with NAD+) / Primary screening (TSA) / delta Tm (K)
1 | CCc1cccc2c(C(=O)N3CCN(C4CCCC4O)CC3)c[nH]c12 (centres unmarked) | -0.28
2 | O=C(COC(=O)C12CC3CC(C1)CC(c1ccccc1)(C3)C2)N1CCN(c2ccccc2)CC1 | -0.13
3 | CCC(C)N(C)CCN (centres unmarked) | -0.03
4 | O=C1NC(=S)NC(=O)C1=Cc1ccc(-c2ccccc2)o1 | -0.19
5 | O=C(O)c1ccc2[nH]c(C(F)F)nc2c1 | -0.01
6 | O=C(CSc1nnc(CC2CCS(=O)(=O)C2)o1)NC1CCCc2ccccc21 (centres unmarked) | -0.28
7 | NC(=O)c1csc(C(=O)NCCc2cc(F)cc3c2OCOC3)c1 | -0.03
8 | NC(=O)c1ccc(COc2ccc3oc4ccccc4c3c2)cc1 | -0.01
9 | COc1ccccc1CNC(=O)CN(C)Cc1ccc(SC)cc1 | -0.06
10 | O=C1NC(=S)N/C1=C/c1ccc(-c2ccc(Cl)cc2)o1 | -0.03
11 | O=C1NC(=S)NC(=O)C1=CNc1ccc(Br)cc1 | -0.02
12 | CCOc1cc2c(cc1CNC(=O)NCc1cn(Cc3ccccc3)nc1-c1ccccc1)OC(C)C2 (centres unmarked) | -0.02
13 | Cc1c(C(C)C)c(Cl)n2c(nc3ccccc32)c1C#N | -0.08
14 | O=C(CN1CCN(C(=O)c2ccc(-c3nc4ccccc4s3)o2)CC1)Nc1cccc(F)c1 | -0.13
15 | CN(C)Cc1ccc(C(=O)Nc2cccc(C(=O)NC3CC3)c2)cc1 | 0.01
16 | NCC1CCCC1N (centres unmarked) | 0.05
17 | Cn1c(SCC(N)=O)nc2ccccc21 | -0.13
18 | Cc1sc2ncnc(N3CCCC(C(N)=O)C3)c2c1C (centres unmarked) | -0.03
19 | O=C(NCCC12CC3CC(C1)CC(CCNC(=O)c1ccc(S(=O)(=O)N4CCOCC4)cc1)(C3)C2)c1ccc(S(=O)(=O)N2CCOCC2)cc1 | 0.01
20 | COc1cc(C2C(C(=O)c3ccco3)=C(O)C(=O)N2CCCN2CCOCC2)cc(OC)c1OC (centres unmarked) | 0.03

Structural class, the compounds so far with an NH in an aromatic ring.
Row | SMILES | TSA(with NAD+) / Primary screening (TSA) / delta Tm (K)
1 | CCc1cccc2c(C(=O)N3CCN(C4CCCC4O)CC3)c[nH]c12 (centres unmarked) | -0.28
5 | O=C(O)c1ccc2[nH]c(C(F)F)nc2c1 | -0.01

(list continues)

Row | SMILES | TSA(with NAD+) / Primary screening (TSA) / delta Tm (K)
21 | CCOc1ccc(C(NC(=O)c2cc(C(N)=O)cn2C)C(C)C)cc1OCC (centres unmarked) | 0.05
22 | Cc1ccc(-c2sc(-c3ccccc3)nc2CC(=O)Nc2nnc(CC(C)C)s2)cc1 | -0.01
23 | C=CCOc1ccc(C2C(C(=O)c3ccc(OCC)cc3)=C(O)C(=O)N2CCN2CCOCC2)cc1 (centres unmarked) | -0.08
24 | COc1cc2c(N3CCC(c4cc(N)[nH]n4)CC3)ncnc2cc1F | -0.03
25 | O=C(CSc1nncn1-c1ccccc1)Nc1ccccc1[N+](=O)[O-] | 0.06
26 | NC(=O)c1cnc(Nc2ncnc3oc(-c4ccccc4)cc23)s1 | -0.05
27 | COc1ncnc2c1cnn2-c1ccccc1 | -0.33
28 | CCn1cc(C(=O)N(C)Cc2ccc(OCc3ccccc3)c(OC)c2)c(=O)c2ccc(C)nc21 | -0.08
29 | CNC(=O)CNC(=O)CNC(=O)c1cccs1 | -0.32
30 | NC(=O)c1c(NC(=O)CSc2nnc(N3CCCC3)n2C2CC2)sc2c1CCC2 | 0.08
31 | COCC(CN)OC (centres unmarked) | -0.19
32 | COc1ccc(CCN2CC(C(=O)OCC(=O)NC(Cc3ccccc3)C(C)=O)CC2=O)cc1OC (centres unmarked) | -0.13
33 | NC(=O)c1cccc(CN2CCCC2c2ccsc2)c1 (centres unmarked) | -0.15
34 | CC(Oc1ccc2ccc(=O)oc2c1)C(=O)N1CCc2ccccc21 (centres unmarked) | -0.23
35 | NC(=O)C1CCN(C(=O)c2[nH]c3ccc(F)cc3c2Cl)CC1 | -0.06
36 | O=C(COC(=O)c1ccc(-n2cccc2)cc1)Nc1ccccc1Cc1ccccc1 | -0.06
37 | CC(C)C(=O)NN | -0.13
38 | COc1cccc2c1OCC(Nc1cc(-c3nc(C)no3)ccn1)C2 (centres unmarked) | 0.03
39 | CN(c1cccc(Cl)c1)S(=O)(=O)c1cccc(C(=O)Nc2cc(C(N)=O)cc(C(N)=O)c2)c1 | -0.01
40 | CCCN(Cc1ccc(C(N)=O)cc1)Cc1nnc(-c2ccco2)o1 | -0.22

Row | SMILES | TSA(with NAD+) / Primary screening (TSA) / delta Tm (K)
41 | Cn1c(=O)[nH]c(=O)c2c1nc(N1CCC(C(N)=O)CC1)n2CCSc1nc2ccccc2o1 | 0.05
42 | CCOc1ccc(C2C(C(=O)c3ccc(C)cc3)=C(O)C(=O)N2CCCN2CCOCC2)cc1 (centres unmarked) | -0.01
43 | CCOC(=O)c1cnc2ccccc2c1NC1CCN(C(=O)OCC)CC1 | -0.18
44 | CCS(=O)(=O)N1CCN(c2ccc(C(N)=O)cc2)CC1 | -0.11
45 | O=C(Nc1cnc2ccccc2c1)C(=O)N1CCC(Oc2ccccc2)CC1 | 0.06
46 | CCCCn1c(N)c(N(CCOC)C(=O)c2cccc(S(=O)(=O)N(C)c3ccccc3)c2)c(=O)[nH]c1=O | -0.06
47 | Cc1csc(N2CCN(c3cc(=O)n4ccccc4n3)CC2)n1 | -0.01
48 | NC(=O)CC1CCN(C(=O)c2ccn(-c3cccc(Cl)c3)n2)CC1 | -0.03
49 | CCOc1cccc(/C=C2/Oc3cc(O)ccc3C2=O)c1OC | 0.13
50 | COc1ccc(-n2c(SCc3ccc([N+](=O)[O-])cc3)nnc2-c2ccccc2OC)cc1 | -0.15
51 | O=C(CN1CCOCC1)N1CCNCC1 | -0.04
52 | CN(c1ccccc1)S(=O)(=O)c1cccc(C(=O)NCCc2c[nH]c3ccccc23)c1 | 0.17
53 | CCCCC(CNC(=O)OC(C)(C)C)NC(=O)CCCc1nc2ccccc2c(=O)[nH]1 (centres unmarked) | -0.03
54 | c1ccc(OC2CCN(c3ncnc4c3oc3ccccc34)CC2)nc1 | -0.11
55 | CC(C)C(O)c1ccccc1NC(=O)c1cc2ccccc2n1C (centres unmarked) | 0.01
56 | CCN(CC(=O)Nc1ccc(NC(C)=O)cc1)C(=O)CCCSc1nc2ccccc2[nH]1 | 0.09
57 | COc1cccc(C(C)NCc2ccc3[nH]c(=O)[nH]c3c2)c1 (centres unmarked) | -0.08
58 | CCc1cc(CN2CCc3cc(OC)c(OC)cc3C2)c(C)cc1O | -0.09
59 | CC1Cc2ccccc2N1S(N)(=O)=O (centres unmarked) | -0.02
